Results are given in words; binding and its absence hold for the method and conditions named. For some assays here: Where a sequence is shown, tags or fusion partners need not be part of it.
What was measured:
[1] = molecular target: human Gasdermin D C-terminal domain (hGSDMD^Cterm), released from GSDMD^TEV by TEV protease (human) (UniProt P57764); assay: SEC
[2] = molecular target: T1, His6-SUMO-GSDMD^Nterm, the N-terminal product of TEV cleavage of GSDMD^TEV (human) (UniProt P57764); assay: solubility and orthogonal Ni-affinity chromatography after proteolytic cleavage
T1 sequence: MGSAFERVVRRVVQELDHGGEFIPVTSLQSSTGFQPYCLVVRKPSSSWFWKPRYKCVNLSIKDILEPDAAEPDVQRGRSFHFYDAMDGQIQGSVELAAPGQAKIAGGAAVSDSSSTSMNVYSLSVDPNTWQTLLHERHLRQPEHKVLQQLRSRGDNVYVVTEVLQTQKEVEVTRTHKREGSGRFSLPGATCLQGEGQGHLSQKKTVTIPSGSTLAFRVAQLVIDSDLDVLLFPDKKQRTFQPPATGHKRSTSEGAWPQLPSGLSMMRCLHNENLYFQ

binding [1]: no binding
binding [2]: no binding
B1: human Gasdermin D C-terminal domain (hGSDMD^Cterm), released from GSDMD^TEV by TEV protease (domain or fragment, UniProt P57764 276-484)
chain: SGVPAEGAFTEDFQGLRAEVETISKELELLDRELCQLLLEGLEGVLRDQLALRALEEALEQGQSLGPVEPLDGPAGAVLECLVLSSGMLVPELAIPVVYLLGALTMLSETQHKLLAEALESQTLLGPLELVGSLLEQSAPWQERSTMSLPPGLLGNSWGEGAPAWVLLDECGLELGEDTPHVCWEPQAQGRMCALYASLALLSGLSQEPH
